The record followed here is the supplement of paper PMC10849652.

Chains of the proteins cited; added tags and fusions are not shown. Lines headed by an entry give the natural chain unless they say otherwise; changes in a name come on top.
UniProt P08697: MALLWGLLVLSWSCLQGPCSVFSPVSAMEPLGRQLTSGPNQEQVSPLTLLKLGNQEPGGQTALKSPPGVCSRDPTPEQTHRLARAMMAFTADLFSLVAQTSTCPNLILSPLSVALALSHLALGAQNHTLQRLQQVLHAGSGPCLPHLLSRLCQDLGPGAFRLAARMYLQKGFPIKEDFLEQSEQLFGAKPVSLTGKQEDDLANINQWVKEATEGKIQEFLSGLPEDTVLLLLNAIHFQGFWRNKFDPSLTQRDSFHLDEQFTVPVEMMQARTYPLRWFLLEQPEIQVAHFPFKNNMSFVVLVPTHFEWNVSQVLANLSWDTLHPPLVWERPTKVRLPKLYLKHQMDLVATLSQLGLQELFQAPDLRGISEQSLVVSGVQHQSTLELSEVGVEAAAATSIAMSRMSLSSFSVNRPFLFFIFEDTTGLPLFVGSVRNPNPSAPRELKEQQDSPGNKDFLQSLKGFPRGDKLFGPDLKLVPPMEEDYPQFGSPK
UniProt Q9Y6P5: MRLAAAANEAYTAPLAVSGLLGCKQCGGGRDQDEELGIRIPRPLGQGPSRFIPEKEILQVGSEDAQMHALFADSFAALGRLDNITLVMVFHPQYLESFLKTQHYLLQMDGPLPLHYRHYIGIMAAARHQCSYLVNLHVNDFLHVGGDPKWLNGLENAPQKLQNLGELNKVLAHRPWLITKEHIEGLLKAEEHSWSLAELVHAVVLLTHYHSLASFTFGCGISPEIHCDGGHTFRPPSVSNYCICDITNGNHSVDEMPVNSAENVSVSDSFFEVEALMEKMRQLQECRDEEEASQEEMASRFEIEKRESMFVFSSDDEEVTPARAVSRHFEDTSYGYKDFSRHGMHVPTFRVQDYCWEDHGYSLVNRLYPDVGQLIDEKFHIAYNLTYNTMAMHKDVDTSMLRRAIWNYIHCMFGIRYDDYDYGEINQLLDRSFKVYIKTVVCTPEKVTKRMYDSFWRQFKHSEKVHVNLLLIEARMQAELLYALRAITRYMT
UniProt Q9HAT2: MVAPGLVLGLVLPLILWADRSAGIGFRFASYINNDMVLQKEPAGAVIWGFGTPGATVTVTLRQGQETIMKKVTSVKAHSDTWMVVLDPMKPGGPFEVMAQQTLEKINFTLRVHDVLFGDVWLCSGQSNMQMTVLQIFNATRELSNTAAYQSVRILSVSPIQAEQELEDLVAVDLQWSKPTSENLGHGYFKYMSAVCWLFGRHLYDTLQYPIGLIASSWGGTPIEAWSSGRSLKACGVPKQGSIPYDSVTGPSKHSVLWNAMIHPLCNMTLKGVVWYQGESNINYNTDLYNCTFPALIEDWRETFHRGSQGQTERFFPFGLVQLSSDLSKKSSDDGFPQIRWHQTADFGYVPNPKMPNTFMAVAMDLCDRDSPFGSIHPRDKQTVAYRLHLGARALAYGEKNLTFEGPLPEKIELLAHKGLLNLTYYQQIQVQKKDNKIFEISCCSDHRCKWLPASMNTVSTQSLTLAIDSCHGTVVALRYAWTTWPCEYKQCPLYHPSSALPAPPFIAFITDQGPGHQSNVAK
UniProt Q8IYI0: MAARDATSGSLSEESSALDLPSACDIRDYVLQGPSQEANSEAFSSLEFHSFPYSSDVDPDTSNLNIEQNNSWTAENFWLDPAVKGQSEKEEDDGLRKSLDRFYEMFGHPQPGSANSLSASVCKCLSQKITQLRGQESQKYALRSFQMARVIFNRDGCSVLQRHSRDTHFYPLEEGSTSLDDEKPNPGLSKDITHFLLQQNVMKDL
UniProt Q9Y2K2: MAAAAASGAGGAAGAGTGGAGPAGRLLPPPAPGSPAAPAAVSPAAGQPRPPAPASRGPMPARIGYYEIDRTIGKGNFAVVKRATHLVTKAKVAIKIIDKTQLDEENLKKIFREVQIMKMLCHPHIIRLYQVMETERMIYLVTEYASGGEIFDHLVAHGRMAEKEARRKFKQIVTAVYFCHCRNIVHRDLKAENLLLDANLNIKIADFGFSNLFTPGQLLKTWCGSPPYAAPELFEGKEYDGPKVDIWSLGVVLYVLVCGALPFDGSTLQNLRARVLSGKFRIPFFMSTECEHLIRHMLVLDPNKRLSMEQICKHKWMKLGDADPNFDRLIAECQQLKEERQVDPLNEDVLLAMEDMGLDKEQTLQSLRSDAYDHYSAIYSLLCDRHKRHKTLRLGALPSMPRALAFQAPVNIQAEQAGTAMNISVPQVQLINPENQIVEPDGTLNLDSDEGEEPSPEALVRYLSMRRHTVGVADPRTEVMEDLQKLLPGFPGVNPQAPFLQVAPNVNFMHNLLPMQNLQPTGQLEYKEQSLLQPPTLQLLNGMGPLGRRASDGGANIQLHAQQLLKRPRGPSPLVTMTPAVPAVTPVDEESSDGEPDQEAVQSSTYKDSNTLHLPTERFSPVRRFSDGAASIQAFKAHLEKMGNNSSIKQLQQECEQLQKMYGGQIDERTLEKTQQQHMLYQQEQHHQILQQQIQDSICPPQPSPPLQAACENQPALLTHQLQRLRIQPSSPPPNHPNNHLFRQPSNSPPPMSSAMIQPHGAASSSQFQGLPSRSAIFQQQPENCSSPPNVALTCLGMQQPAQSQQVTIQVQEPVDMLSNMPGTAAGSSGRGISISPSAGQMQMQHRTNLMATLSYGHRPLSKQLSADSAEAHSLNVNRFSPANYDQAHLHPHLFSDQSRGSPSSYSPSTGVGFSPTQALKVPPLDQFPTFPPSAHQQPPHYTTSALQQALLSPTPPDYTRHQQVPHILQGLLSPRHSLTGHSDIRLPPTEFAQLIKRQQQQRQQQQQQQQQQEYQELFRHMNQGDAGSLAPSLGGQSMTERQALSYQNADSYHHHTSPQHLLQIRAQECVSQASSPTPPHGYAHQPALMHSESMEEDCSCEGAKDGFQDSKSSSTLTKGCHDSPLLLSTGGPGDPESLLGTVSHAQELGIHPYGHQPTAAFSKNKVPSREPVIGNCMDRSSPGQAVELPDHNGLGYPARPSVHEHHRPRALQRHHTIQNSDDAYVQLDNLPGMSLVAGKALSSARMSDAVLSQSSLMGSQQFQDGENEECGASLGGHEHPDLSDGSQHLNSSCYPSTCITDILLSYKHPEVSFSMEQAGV
UniProt P05543: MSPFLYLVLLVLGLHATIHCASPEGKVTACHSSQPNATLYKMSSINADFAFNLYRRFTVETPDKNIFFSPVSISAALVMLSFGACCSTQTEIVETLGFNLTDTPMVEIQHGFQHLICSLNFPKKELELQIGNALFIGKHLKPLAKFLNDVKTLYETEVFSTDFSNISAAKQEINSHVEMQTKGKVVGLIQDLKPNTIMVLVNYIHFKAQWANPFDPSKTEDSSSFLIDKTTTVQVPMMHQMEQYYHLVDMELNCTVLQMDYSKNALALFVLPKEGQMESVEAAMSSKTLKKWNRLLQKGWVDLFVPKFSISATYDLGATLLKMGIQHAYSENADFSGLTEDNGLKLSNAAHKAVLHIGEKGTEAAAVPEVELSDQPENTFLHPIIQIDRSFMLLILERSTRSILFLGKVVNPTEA
UniProt Q6PI26: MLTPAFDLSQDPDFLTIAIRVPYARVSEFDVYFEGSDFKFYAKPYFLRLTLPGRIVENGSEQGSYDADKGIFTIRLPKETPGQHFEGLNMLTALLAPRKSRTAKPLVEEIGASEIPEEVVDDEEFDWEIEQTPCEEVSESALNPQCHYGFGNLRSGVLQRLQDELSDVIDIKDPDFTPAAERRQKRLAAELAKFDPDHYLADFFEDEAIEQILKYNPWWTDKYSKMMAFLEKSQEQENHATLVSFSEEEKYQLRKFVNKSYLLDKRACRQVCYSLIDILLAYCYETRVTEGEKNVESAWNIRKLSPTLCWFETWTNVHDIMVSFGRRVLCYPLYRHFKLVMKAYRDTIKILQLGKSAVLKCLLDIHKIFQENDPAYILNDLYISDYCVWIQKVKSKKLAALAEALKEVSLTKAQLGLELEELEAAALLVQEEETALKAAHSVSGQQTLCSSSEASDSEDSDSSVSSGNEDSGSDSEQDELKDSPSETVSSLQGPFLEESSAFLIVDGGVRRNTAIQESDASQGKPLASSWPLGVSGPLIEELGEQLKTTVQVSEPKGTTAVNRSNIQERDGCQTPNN
UniProt Q8IW75: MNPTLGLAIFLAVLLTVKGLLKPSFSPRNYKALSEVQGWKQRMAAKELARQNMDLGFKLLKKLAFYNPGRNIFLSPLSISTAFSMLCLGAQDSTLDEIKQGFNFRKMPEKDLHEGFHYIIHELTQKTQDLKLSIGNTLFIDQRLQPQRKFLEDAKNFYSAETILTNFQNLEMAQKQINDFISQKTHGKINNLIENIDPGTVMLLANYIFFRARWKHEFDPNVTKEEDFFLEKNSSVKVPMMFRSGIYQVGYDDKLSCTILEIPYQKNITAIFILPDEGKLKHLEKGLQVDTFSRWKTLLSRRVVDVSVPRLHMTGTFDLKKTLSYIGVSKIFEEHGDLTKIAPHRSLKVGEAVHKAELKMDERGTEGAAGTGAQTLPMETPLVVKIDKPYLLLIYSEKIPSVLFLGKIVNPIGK
UniProt Q8TBK2: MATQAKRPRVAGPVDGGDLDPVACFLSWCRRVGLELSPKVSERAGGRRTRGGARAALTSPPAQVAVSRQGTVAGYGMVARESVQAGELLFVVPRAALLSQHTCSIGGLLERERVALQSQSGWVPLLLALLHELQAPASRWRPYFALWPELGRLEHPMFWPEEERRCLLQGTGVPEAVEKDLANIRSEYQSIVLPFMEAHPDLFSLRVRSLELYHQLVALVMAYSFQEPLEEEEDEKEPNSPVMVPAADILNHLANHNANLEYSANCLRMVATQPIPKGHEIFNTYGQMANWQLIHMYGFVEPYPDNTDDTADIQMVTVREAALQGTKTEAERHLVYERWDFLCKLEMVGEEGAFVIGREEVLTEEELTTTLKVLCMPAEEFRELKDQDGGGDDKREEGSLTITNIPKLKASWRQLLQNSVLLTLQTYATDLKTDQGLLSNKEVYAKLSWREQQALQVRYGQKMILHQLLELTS
UniProt Q8N196: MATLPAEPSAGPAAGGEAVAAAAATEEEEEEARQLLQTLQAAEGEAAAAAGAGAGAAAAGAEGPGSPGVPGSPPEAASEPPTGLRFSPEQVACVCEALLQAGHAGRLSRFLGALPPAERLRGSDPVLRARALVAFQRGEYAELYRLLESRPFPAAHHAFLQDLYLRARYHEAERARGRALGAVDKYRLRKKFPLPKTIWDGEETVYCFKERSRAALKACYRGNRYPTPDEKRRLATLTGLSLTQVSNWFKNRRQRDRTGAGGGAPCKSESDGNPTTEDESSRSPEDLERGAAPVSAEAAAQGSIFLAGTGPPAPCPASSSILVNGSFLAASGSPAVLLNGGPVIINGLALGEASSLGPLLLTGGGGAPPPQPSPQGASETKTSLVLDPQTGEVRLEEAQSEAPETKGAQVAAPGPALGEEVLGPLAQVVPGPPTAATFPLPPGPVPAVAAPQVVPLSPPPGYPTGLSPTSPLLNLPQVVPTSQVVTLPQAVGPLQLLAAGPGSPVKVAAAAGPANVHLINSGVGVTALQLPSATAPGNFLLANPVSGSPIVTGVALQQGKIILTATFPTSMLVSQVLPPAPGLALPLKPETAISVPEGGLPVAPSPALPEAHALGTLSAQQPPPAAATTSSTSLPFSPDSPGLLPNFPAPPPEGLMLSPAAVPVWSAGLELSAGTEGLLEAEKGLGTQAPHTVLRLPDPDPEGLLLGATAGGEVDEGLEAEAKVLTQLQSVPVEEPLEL
UniProt Q15464: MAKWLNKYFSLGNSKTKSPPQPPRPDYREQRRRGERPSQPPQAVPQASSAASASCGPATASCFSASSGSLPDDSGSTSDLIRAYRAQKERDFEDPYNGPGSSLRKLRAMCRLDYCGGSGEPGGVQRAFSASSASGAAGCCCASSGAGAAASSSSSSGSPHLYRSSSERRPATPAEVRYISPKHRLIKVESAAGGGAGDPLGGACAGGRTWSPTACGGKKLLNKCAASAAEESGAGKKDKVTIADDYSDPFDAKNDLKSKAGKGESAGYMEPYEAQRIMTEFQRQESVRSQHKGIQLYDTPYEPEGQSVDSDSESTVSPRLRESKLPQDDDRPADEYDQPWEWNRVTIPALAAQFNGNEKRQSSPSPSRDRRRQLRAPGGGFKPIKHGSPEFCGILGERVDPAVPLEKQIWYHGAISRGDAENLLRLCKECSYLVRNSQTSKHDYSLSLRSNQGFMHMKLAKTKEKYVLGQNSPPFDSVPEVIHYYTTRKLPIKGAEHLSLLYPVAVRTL
UniProt Q96EP9: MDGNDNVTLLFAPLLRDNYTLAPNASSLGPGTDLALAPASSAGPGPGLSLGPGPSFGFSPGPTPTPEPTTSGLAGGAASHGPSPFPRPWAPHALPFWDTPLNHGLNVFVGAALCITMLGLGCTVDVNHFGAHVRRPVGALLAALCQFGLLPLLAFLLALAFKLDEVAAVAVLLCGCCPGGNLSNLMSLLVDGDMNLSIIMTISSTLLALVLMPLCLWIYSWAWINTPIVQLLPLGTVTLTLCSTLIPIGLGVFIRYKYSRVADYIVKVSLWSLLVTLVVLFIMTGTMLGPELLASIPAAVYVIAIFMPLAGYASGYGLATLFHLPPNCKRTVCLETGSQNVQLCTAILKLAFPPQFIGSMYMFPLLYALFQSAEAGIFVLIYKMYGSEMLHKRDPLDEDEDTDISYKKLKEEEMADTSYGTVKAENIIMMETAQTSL

The other results are listed elsewhere or left out.

Compound in the first test: C1CN(CCC1(CC2=CC=C(C=C2)Cl)N)C3=NC=NC4=C3C=CN4
The test is described as follows: log2 fold change, soluble protein after heating vs DMSO (PISA); higher = thermal stabilisation; K562 lysate, 10 uM; active = over 0.2 and 3.5 SD of the protein, either way, in both replicates (recomputed). In short, it runs like this: (§1)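 Pellets of K562 cells were dounce-homogenised in PBS pH 7.4 with 1 mM MgCl2, and the crude extract was held at 1 mg/mL protein for a 30 min treatment with 10 μM compound. Aliquots were heated for 3 min over 48°C-58°C and pooled before NP-40 was added to 0.5% at 4°C. The supernatant from 21,000xg for 90 min was quantified by TMTpro 16plex LC-MS/MS with channel sums equalised. Values are reported from duplicates as log-two fold change in thermal stability relative to solvent controls.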
For SERPINF2 (UniProt P08697), the log2 fold change is inactive: 0.004.
For SIK2 (UniProt Q9H0K1), the log2 fold change is inactive: 0.028.
SLC12A6 isoform 2 (UniProt Q9UHW9): the log2 fold change is inactive: -0.049.
As for SLC10A3 (UniProt P09131), the log2 fold change is inactive: -0.035.
Regarding SF1 (UniProt H7C0N4), the log2 fold change is inactive: -0.075.
Consider SESN1 isoform 2 (UniProt Q9Y6P5), for which the log2 fold change is inactive: 0.127.
Turning to SLC19A2 (UniProt O60779), the log2 fold change is inactive: -0.253.
For the target SLC20A2 (UniProt Q08357), the log2 fold change was inactive: 0.011.
Consider SIAE (UniProt Q9HAT2), for which the log2 fold change is inactive: 0.013.
As to SIGIRR (UniProt Q6IA17), the log2 fold change was inactive: 0.26.
Regarding SIMC1 (UniProt Q8NDZ2), the log2 fold change was inactive: -0.194.
In the case of SIN3B (UniProt O75182), the log2 fold change was inactive: 0.132.
For SHLD1 (UniProt Q8IYI0), the log2 fold change was inactive: 0.116.
Regarding SGO2 (UniProt Q562F6), the log2 fold change was inactive: 0.153.
In the case of SFT2D3 (UniProt Q587I9), the log2 fold change is inactive: -0.079.
Regarding SET isoform 3 (UniProt Q01105), the log2 fold change was inactive: 0.047.
Consider SIK3 (UniProt Q9Y2K2), for which the log2 fold change is inactive: 0.094.
Consider SH2D1B (UniProt O14796), for which the log2 fold change is inactive: -0.032.
Regarding SERAC1 (UniProt Q96JX3), the log2 fold change is inactive: 0.056.
Consider SERPINA7 (UniProt P05543), for which the log2 fold change was inactive: 0.005.

Compound in the next test: C1COCCN1CCN2C3=CC=CC=C3N=C2NC(=O)C4=CC(=CC=C4)[N+](=O)[O-] [IRAK-1-4 Inhibitor I]
Described as above. The procedure, abridged:
as §1
SHQ1 (UniProt Q6PI26): the log2 fold change is inactive: -0.229.
For the target SIK2 (UniProt Q9H0K1), the log2 fold change is inactive: 0.036.
For the target SERPINA12 (UniProt Q8IW75), the log2 fold change is inactive: -0.213.
In the case of SETD6 (UniProt Q8TBK2), the log2 fold change was inactive: 0.138.
Consider SIAH1 isoform 2 (UniProt Q8IUQ4), for which the log2 fold change is inactive: 0.001.
For SLC12A6 isoform 2 (UniProt Q9UHW9), the log2 fold change is inactive: 0.089.
For the target SH2B1 (UniProt Q9NRF2), the log2 fold change was inactive: 0.05.
Still for that read-out and setting: the same measure for SERPINB7 (UniProt O75635): inactive: -0.156; for SLC20A2 (UniProt Q08357): inactive: 0.035.
Same read-out and setting: with SERPINB5 (UniProt P36952) the figure was inactive: -0.254; with SIAE (UniProt Q9HAT2), inactive: 0.28; with SH2D3A (UniProt Q9BRG2), inactive: -0.039.
For the target SESTD1 (UniProt Q86VW0), the log2 fold change is inactive: 0.181.
In the case of SGO2 (UniProt Q562F6), the log2 fold change was inactive: 0.152.
With SFT2D3 (UniProt Q587I9), the log2 fold change is inactive: -0.11.
As for SIX5 (UniProt Q8N196), the log2 fold change is inactive: -0.141.
As to SIK3 (UniProt Q9Y2K2), the log2 fold change was inactive: -0.032.
Same read-out and setting: the same measure for SERPINA1 (UniProt P01009): inactive: -0.335; for SH2D1B (UniProt O14796): inactive: 0.06; for SHB (UniProt Q15464): inactive: -0.067.
Still for that read-out and setting: the same measure for SLC10A4 (UniProt Q96EP9): inactive: -0.288; for SGSM3 isoform 2 (UniProt Q96HU1): inactive: 0.002; for SLC16A3 (UniProt O15427): inactive: 0.053.
On the same count and under the same terms, the same measure for SLAIN2 (UniProt D6RIF6): inactive: 0.081.
